Article PMC3979106 (Structure(London, England:1993), 2014)
No constants are given. Whether binding was seen depends on the method and setting.

Protein sequences, listed by entry. Tags and fused reporters are not part of them. Lines headed by an entry give the natural chain unless they say otherwise; changes in a name come on top. Chains listed by the source or under a name are the forms on record and can include a tag or linker. Residues count along the entry.
UniProt P49427: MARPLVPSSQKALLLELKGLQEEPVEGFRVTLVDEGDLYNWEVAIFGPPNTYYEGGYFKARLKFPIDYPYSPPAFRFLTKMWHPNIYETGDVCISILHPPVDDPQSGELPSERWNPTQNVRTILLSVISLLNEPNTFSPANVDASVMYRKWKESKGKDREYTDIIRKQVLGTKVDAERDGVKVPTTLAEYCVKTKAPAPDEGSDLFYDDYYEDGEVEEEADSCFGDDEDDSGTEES
UniProt P61077, residues 2-147: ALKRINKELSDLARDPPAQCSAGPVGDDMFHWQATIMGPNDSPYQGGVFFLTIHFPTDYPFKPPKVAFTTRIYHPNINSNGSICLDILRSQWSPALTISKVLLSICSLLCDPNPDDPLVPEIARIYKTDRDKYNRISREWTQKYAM
UniProt Q9NPD8: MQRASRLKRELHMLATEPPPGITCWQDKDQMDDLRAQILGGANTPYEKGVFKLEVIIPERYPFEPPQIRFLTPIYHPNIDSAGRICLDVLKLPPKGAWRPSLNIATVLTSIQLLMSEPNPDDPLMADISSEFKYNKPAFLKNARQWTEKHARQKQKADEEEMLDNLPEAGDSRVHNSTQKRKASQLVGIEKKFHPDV
Human Ube2T Arg60Glu (Q9NPD8, form named): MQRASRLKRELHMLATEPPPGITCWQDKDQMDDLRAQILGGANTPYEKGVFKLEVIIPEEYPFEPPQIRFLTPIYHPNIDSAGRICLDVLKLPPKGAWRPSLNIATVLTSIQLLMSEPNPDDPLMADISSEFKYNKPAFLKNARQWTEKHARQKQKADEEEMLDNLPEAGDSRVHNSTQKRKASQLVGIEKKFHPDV
UniProt O14933: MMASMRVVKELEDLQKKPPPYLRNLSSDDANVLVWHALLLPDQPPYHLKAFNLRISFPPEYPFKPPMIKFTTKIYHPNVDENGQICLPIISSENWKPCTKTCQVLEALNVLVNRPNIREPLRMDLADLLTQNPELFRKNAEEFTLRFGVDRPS
UniProt P63146: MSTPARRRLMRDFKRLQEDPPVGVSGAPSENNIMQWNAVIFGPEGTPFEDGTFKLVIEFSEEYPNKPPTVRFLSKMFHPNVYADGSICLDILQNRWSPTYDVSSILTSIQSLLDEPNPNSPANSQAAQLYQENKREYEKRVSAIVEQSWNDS
UniProt P61086: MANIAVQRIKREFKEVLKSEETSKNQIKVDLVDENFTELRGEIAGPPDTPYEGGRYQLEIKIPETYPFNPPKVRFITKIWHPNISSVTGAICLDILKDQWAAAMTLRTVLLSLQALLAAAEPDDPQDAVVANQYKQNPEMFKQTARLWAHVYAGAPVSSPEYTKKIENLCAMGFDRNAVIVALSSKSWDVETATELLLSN
UniProt P62256: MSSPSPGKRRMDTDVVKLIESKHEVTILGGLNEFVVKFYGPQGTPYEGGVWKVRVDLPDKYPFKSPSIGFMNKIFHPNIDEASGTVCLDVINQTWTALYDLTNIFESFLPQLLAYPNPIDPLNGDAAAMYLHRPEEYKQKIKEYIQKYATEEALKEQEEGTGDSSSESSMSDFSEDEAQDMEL

Experiments:
[1] = target: T1, Human FANCL RING domain (residues 289–375) (human) (UniProt Q9NW38); assay: condition: 80–100 μM of E2 with ∼140 μM FANCL RING domain; native gel or EMSA; native gel shift; ∼140 μM FANCL RING domain with 80–100 μM E2, 10 min on ice in 0.1 M NaCl, 0.1 M Tris pH 8, 250 μM TCEP; 4%–12% native PAGE; both purified
T1 sequence: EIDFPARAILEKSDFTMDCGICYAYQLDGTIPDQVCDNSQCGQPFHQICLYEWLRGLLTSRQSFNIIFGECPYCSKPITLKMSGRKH

[2] = target: T1, Human FANCL RING domain (residues 289–375) (human); assay: SEC; analytical size-exclusion chromatography, Superdex 75 10/300; RING domain and one E2 incubated 1 hr on ice in 0.1 M NaCl, 0.1 M Tris pH 8, 250 μM TCEP; complex read as a peak shift to the left; both purified
[3] = target: T1, Human FANCL RING domain (residues 289–375) (human); assay: condition: equimolar amounts of Ube2T, Ube2D3 and Ube2L3; SEC; analytical size-exclusion chromatography of FANCL RING domain incubated with an equimolar mix of Ube2T, Ube2D3 and Ube2L3; E2 bands of the shifted peak identified by SDS-PAGE and mass spectrometry; both purified

| binding [1] | binding [2] | binding [3] | Substance |
| --- | --- | --- | --- |
| no binding | no binding | – | Human Ube2R1 (from UniProt P49427 1-236) (enzyme) |
| no binding | no binding | no binding | Human Ube2D3 (UbcH5c) (from UniProt P61077 2-147) (enzyme) |
| – | no binding | – | Human Ube2T Arg60Glu (from UniProt Q9NPD8 1-197) (enzyme) |
| no binding | no binding | – | Ube2L6 (from UniProt O14933 1-153) (enzyme) |

The remaining lines, values behind:

| Substance | binding [1] | binding [2] | binding [3] |
| --- | --- | --- | --- |
| Human Ube2B (from UniProt P63146 1-152) (enzyme) | no binding | no binding | – |
| Human Ube2K (from UniProt P61086 1-200) (enzyme) | no binding | no binding | – |
| Ube2H (from UniProt P62256 1-183) (enzyme) | no binding | no binding | – |
